About 7,500 (2.1%) of roughly 360,000 compounds were called active. Inconclusive results, whose numbers are uncertain, are shown with a selection of clear calls. Calls come from the whole dose curve; as a rule, active = well fitted inhibition curve with a large enough effect; inconclusive = small, poorly fitted or top-dose-only effect, or effect the other way; inactive = flat fitted curve, though single readings scatter. Potencies of inconclusive entries are doubtful fits and often do not repeat.
Assay: Nrf2 qHTS screen for inhibitors; note: nearly all actives have a fitted effect of over 60% in size
Conditions: A549 ARE-Fluc reporter, luciferase luminescence, 18-24 h; series mostly up to 46 µM
Summary of the method: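 Two sequential reads on A549 ARE_Fluc cells exposed to compound for 18-24 h: a CellTiter-Fluor fluorescence read for viability, then a luciferase luminescence read for Nrf2/ARE activity.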
Potency is the fitted concentration of half-maximal effect.

Row | Structure (SMILES) | Potency
1 | O=C(NCCCc1ccccc1)c1ccc([N+](=O)[O-])cc1Cl | inconclusive: 5.8 µM [activator, partial curve, poor fit]
2 | CCn1c(Cc2ccc(OC)cc2)nnc1SCC(=O)Nc1nc2ccccc2s1 | inactive
3 | Cc1ccc(SC[C@H](c2ccccc2)N2CCN(CCc3ccccc3)CCC2=O)cc1 | inconclusive: 20.6 µM [activator, partial curve, poor fit]
4 | Cc1ccc(NC(=O)COC(=O)c2cc(=O)c3ccccc3o2)cc1F | inconclusive: 4.11 µM [activator, full curve, poor fit]
5 | CC(=NNc1nc2ccccc2s1)c1ccncn1 | inconclusive: 32.6 µM [falling, single point]
6 | O=C(N/N=C/c1ccc([N+](=O)[O-])s1)c1ccccc1Br | active: 9.2 µM
7 | Cc1nc2ccccc2c2oc(C(=O)NCCCN3CC(C)CC(C)C3)cc12 (configuration not stated) | inactive
8 | C=CC[C@@H](CC(=O)N(CCO)Cc1ccccc1)C(=O)NCCOC(=O)[C@@H](CC=C)Cc1ccc(F)cc1 | inconclusive: 29.1 µM [falling, single point]
9 | O=C(Nc1ccc(N2CCCC2)c(Cl)c1)c1cccs1 | inconclusive: 2.91 µM [activator, partial curve]
10 | Cc1ccc(OCCNC(=O)C2CC(=O)N(Cc3ccccc3)C2)cc1 (configuration not stated) | inactive
11 | CNCCOc1ccccc1C(C)(C)C | inactive
12 | COCCN1Cc2cccc(C(=O)Nc3cccc(-c4nc5ccccc5[nH]4)c3)c2C1=O | inconclusive: 13 µM [falling, partial curve, poor fit]
13 | COc1ccccc1C1/C(=C(/O)c2ccccc2)C(=O)C(=O)N1CCO (configuration not stated) | inactive
14 | Cn1c(N)c(C(=O)COC(=O)CSc2ccccc2)c(=O)n(C)c1=O | inconclusive: 18.4 µM [activator, partial curve]
15 | CCc1ccc(Nc2cc(C)nc3ncnn23)cc1 | inconclusive: 7.31 µM [falling, partial curve]
16 | COc1ccc(F)cc1CN1CCN(C(=O)c2ccc(S(=O)(=O)N3CCCCCC3)cc2)CC1 | inconclusive: 18.4 µM [falling, partial curve, poor fit]
17 | COC(=O)c1ccccc1NC(=O)C1CC(=O)N(c2ccc(C)c(C)c2)C1 (configuration not stated) | inconclusive: 23.1 µM [falling, single point]
18 | O=C(COC(=O)c1cc([N+](=O)[O-])ccc1N1CCOCC1)Nc1ccc(Cl)cn1 | inconclusive: 29.1 µM [falling, single point]
19 | Cc1ccc(OCc2ccc(C(=O)NCC3CCCO3)cc2)cc1C (configuration not stated) | inconclusive: 32.6 µM [falling, single point]
20 | COc1ccc(/C=C(/NC(=O)c2ccco2)C(=O)NCc2ccco2)cc1OC | inactive
21 | CC(=O)c1ccc(-c2cccc(-c3nc4ccccn4c3NC3CCCCC3)c2)cc1 | inconclusive: 23.1 µM [falling, single point]
22 | O=C(NCCC1=CCCCC1)c1ccc(Cl)c([N+](=O)[O-])c1 | inconclusive: 2.59 µM [activator, full curve]
23 | O=C(Nc1cc2c(cc1Br)OCCCO2)c1ccccc1 | inconclusive: 10.3 µM [activator, partial curve]

Row | Structure (SMILES) | Potency
24 | CC1=C(C(=O)Nc2cccc(C(F)(F)F)c2)C2(CCCCCC2)OC1=O | inactive
25 | C=CCn1c(=S)[nH]c2cc(C(=O)Nc3ccc(F)cc3)ccc2c1=O | inconclusive: 1.64 µM [activator, partial curve, poor fit]
26 | Cc1cccc(C)c1NC(=O)NCc1ccco1 | inconclusive: 3.66 µM [falling, partial curve, poor fit]
27 | O=C(NC1CCCCC1)C(=S)NCc1ccccc1 | inconclusive: 13 µM [activator, single point]
28 | CCNc1nc2c(cnn2C)c(=O)[nH]1 | inconclusive: 7.31 µM [falling, partial curve]
29 | CCN=C1SC(C(=O)Nc2cccc(OCC)c2)CC(=O)N1CC (configuration not stated) | inconclusive: 29.1 µM [falling, single point]
30 | O=C1NC2(CCCCCC2)C(=O)N1Cc1cccc([N+](=O)[O-])c1 | inactive
31 | CCNC(=S)Nc1ccc2c(c1)oc1ccccc12 | inconclusive: 23.1 µM [activator, partial curve]
32 | Cc1cc(C)nc(Nc2cccc(Cl)c2)n1 | inactive
33 | O=C(Nc1nnc(C2=COCCO2)o1)c1ccc(Cc2ccccc2)cc1 | inconclusive: 29.1 µM [falling, single point]
34 | CSc1nc(Cc2ccccc2)cc(=O)[nH]1 | inconclusive: 9.2 µM [activator, partial curve, poor fit]
35 | CC1CCN(S(=O)(=O)c2ccc(C(C)C)cc2)CC1 | inconclusive: 18.4 µM [falling, single point]
36 | CCCc1c(C(=O)O)cnn1-c1ccc(Cl)cc1 | inconclusive: 11.6 µM [falling, partial curve, poor fit]
37 | COC(=O)/C=C1\SC(=Nc2ccc(Cl)c(Cl)c2)NC1=O | inconclusive: 32.6 µM [falling, single point]
38 | CN(C(=O)c1cccc(NC(=O)Cc2ccc(NC(=O)C3CCCN(C(=O)C4CCC4)C3)cc2)c1)C1CCCC1 (configuration not stated) | inconclusive: 20.6 µM [falling, partial curve, poor fit]
39 | Cc1ccc2occ(CC(=O)Nc3c(C(=O)Nc4ccc(Cl)cc4)oc4ccccc34)c2c1 | inactive
40 | COc1ccc(N2CCN(C(=O)CN3C(=O)NC(C)(c4ccc5ccccc5c4)C3=O)CC2)cc1 (configuration not stated) | inconclusive: 29.1 µM [falling, single point]
41 | CC(=O)Nc1ccccc1OCCOc1ccc(Br)cc1 | inconclusive: 29.1 µM [falling, single point]
42 | O=C(Nc1nc(-c2ccc(S(=O)(=O)N3CCCCCC3)cc2)cs1)c1cccs1 | active: 6.51 µM
43 | COc1ccc(OC)c(Nc2nc(-c3sc(N)nc3C)cs2)c1 | inactive
44 | Cc1cccc(C)c1NC(=O)CN(C)S(=O)(=O)c1ccc2[nH]c3c(c2c1)CCCC3 | inconclusive: 16.4 µM [falling, partial curve, poor fit]
45 | COc1ccc2c(c1OC)C(=O)N(c1ccc(OCc3ccccc3)cc1)C2=O | inconclusive: 0.58 µM [falling, partial curve, poor fit]
46 | CCOc1ccc(NC(=O)Cc2cccc3ccccc23)c([N+](=O)[O-])c1 | inconclusive: 18.4 µM [falling, partial curve, poor fit]

Row | Structure (SMILES) | Potency
47 | O=C(O)c1ccc2nc(C(F)(F)F)[nH]c2c1 | inactive
48 | COc1ccc(NC(=O)c2[nH]c(C)c(C(C)=O)c2C)cc1 | inconclusive: 8.2 µM [activator, partial curve]
49 | S=C(NCCSCc1ccc(Cl)cc1Cl)Nc1ccccc1 | inconclusive: 29.1 µM [falling, single point]
50 | O=C(NCCc1ccc2c(c1)OCCO2)c1cc(S(=O)(=O)N2CCCC2)ccc1Br | inconclusive: 18.4 µM [falling, partial curve, poor fit]
51 | Cc1c(C(=O)N2CCN(c3ccccc3)CC2)sc2ncnc(N3CCN(c4ccccn4)CC3)c12 | inconclusive: 16.4 µM [falling, single point]
52 | Cc1ccc(OCc2ccc(C(=O)O)o2)cc1C | inconclusive: 1.46 µM [activator, full curve]
53 | CCOC(=O)CC(NS(=O)(=O)c1cc(-c2cc(C)no2)ccc1C)c1ccc(C)cc1 (configuration not stated) | inconclusive: 29.1 µM [falling, single point]
54 | O=S(=O)(c1ccccc1)c1cnc(-c2cccnc2)nc1-c1ccc(Cl)cc1Cl | inconclusive: 1.03 µM [falling, partial curve, poor fit]
55 | N#Cc1nc(Nc2cccc3ccccc23)nc(NC2CCCC2)n1 | active: 18.4 µM
56 | Cc1oc(-c2ccccc2)cc1C(=O)Nc1cccc(/C=C/C(=O)O)c1 | active: 23.1 µM
57 | CC(=O)n1nc(-c2ccccc2)cc1-c1ccccc1 | inconclusive: 7.31 µM [activator, partial curve]
58 | Cc1ccc(Cn2cccc2C2=NC(C)CO2)cc1 (configuration not stated) | inconclusive: 18.4 µM [activator, partial curve, poor fit]
59 | Cc1ccc2[nH]c(C(=O)N3CCCCC3)cc2c1 | inconclusive: 13 µM [activator, partial curve, poor fit]
60 | CCOc1ccc(C(=O)Nc2ccc3nc4c(c(Nc5ccccc5OC)c3c2)CCCC4)cc1 | inconclusive: 29.1 µM [falling, single point]
61 | CCC1CCc2sc(C(=O)NC3CCN(Cc4ccccc4)CC3)cc2C1 (configuration not stated) | inconclusive: 16.4 µM [falling, partial curve, poor fit]
62 | Cc1ccc(-c2csc(NNC(=O)c3ccccc3)n2)cc1 | inconclusive: 10.3 µM [falling, partial curve, poor fit]
63 | O=C(CSCc1nc2c(nnn2Cc2ccc(F)cc2)c(=O)[nH]1)Nc1c(Cl)cc(Cl)cc1Cl | inconclusive: 20.6 µM [falling, single point]
64 | O=C(Nc1cccc(NC(=O)c2cccc(F)c2)n1)c1cccc(F)c1 | inconclusive: 29.1 µM [falling, single point]
65 | CNC(=S)N(Cc1ccco1)Cc1cc2cc(OC)c(OC)cc2[nH]c1=O | inconclusive: 0.92 µM [falling, full curve]
66 | COc1ccc(CN(C)C(=O)C2CCN(S(=O)(=O)c3cccs3)CC2)cc1F | inactive
67 | CCOc1ncccc1C(=O)OCC(=O)Nc1ccc(-c2nc3ccc(C)cc3s2)cc1 | inconclusive: 23.1 µM [falling, single point]

4 entries from above, reformatted.
O=C(O)c1ccc2nc(C(F)(F)F)[nH]c2c1
  Potency: inactive
COc1ccc(NC(=O)c2[nH]c(C)c(C(C)=O)c2C)cc1
  Potency: inconclusive: 8.2 µM [activator, partial curve]
S=C(NCCSCc1ccc(Cl)cc1Cl)Nc1ccccc1
  Potency: inconclusive: 29.1 µM [falling, single point]
O=C(NCCc1ccc2c(c1)OCCO2)c1cc(S(=O)(=O)N2CCCC2)ccc1Br
  Potency: inconclusive: 18.4 µM [falling, partial curve, poor fit]

Another view of 2 compounds above:
Row,Structure (SMILES),Potency
7,Cc1nc2ccccc2c2oc(C(=O)NCCCN3CC(C)CC(C)C3)cc12 (configuration not stated),inactive
23,O=C(Nc1cc2c(cc1Br)OCCCO2)c1ccccc1,"inconclusive: 10.3 µM [activator, partial curve]"
